Measurements as given in patent publication US6027884.
Construct, isoform or probe ends are uncertain for at least one entry. The direction of at least one scale is not stated here.

The chains behind the UniProt entries cited, without tags or fusion partners. Residues count along the entry.
UniProt P00639, 23-282: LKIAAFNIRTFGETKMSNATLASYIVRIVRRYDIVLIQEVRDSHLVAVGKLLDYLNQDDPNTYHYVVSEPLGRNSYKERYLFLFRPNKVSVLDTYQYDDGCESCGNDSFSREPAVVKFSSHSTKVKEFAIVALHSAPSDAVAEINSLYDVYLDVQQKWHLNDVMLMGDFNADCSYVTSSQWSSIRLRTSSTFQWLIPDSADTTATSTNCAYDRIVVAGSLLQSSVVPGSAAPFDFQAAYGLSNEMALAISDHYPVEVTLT

Molecular target: DNase I (UniProt P00639)
Experiment: enzyme reaction in vitro
Conditions: CITED Huang et al. 1988, purified native protein, label: labeled (Cherenkov-counted)

Row | Sequence | activity signal (fold vs (AA)3) (kobs ratio (AT)3/(AA)3) | activity signal (reference for kobs ratio, (AT)3 at least 2-fold faster) [reference]
1 | ATATATAGCTATATAT (double strand) [(AT)3 AGCT(AT)3] | > 2 | 
2 | AAAAAAAGCTTTTTTT (double strand) [(AA)3 AGCT(TT)3] |  | 1
